Assay results taken from patent US12723255B2, “Herbicide tolerance genes and methods of use thereof” (priority 2014, dated 2026).
Residue numbers refer to the chain shown, from its start. Some entries share one result that the patent states for a list of compounds. Some compounds share one range, which may span the group rather than tell each member.

Legend:
[1] = type: physicochemical; settings: Table 11 series
Experimental: A protein melting analysis was also conducted. For the protein melting determinations, purified enzyme was added to 96-well microtiter plates in standard storage buffer (30 mM Tris pH7.5, 150 mM NaCl) with or without 50 uM Fe2+ and 1.0 mM aKG. Protein unfolding was then detected with SYPRO® orange protein gel stain (Invitrogen™ catalog #S6651, Life Technologies, Grand Island, NY) in a BioRad CFX96™ Real time PCR machine (BioRad, Hercules, CA) with readings taken between 10° C. to 95° C. in 0.5° C. steps. […] In contrast, 50 uM Fe2+ and 1.0 mM aKG had little effect on the stability of any of the engineered proteins. MON-HT55, MON-HT3, MON-HT4, MON-HT6, and MON-HT10 had melting temperatures in the range of 41° C. to 48° C., which is below the melting temperature of the wild-type enzyme. MON-HT1, MON-HT2, MON-HT5, MON-HT7, MON-HT8, and MON-HT9 had melting temperatures between 58° C. and 67° C., which is 8° C. to 17° C. higher than the wild-type enzyme. For MON-HT7 and MON-HT1, the difference in melting point was 11° C. in buffer without Fe2+ and aKG and 8° C. in buffer with Fe2+ and aKG. This was surprising since there are only four amino acid differences between the two enzymes.
A protein melting analysis was conducted as detailed above. The melting temperatures of MON-HT13, MON-HT15, and MON-HT17 was similar to the melting temperature of MON-HT1 with T1/2 in buffer in the range of 55-58° C., and with T1/2 in buffer plus Fe2+ and aKG in the range of 60-62° C.

[2] = test system: F1 hybrid maize plants; test: plant-based assay for heat sensitivity, quizalofop-P tolerance; type: in vivo; settings: 2× quizalofop-P; day/night 38° C./30° C.; ten days post treatment; 0 no visible injury, 5 dead plants
Experimental: A plant-based enzyme activity assay for heat sensitivity was used to determine the effect of elevated growth temperatures on the herbicide tolerance of transgenic plants containing the optimized engineered proteins. To test for quizalofop-P tolerance at elevated growth temperatures, F1 hybrid (produced by crossing an R1 homozygous plant expressing one of the MON-HT proteins with inbred maize event MON89034) maize seed was grown in a growth chamber for 10 days at a day temperature of 28° C. and a night temperature of 20° C. with 50% humidity. After 10 days, the plants were moved to acclimate for 3 days at one of three different day and night temperature regimens: (1) both day and night temperatures set at 20° C.; (2) day temperature at 28° C. and night temperature at 20° C.; or (3) day temperature at 38° C. and night temperature at 30° C. At the end of the acclimation period, the plants were generally at V4 growth stage and were sprayed with 2× quizalofop-P. Ten days post treatment the plants were scored for injury on a rating scale of 1 to 5 where ‘0’ is no visible injury observed, ‘1’ is chlorotic speckling, ‘2’ is chlorotic streaking, ‘3’ there are leaf gaps or tears, ‘4’ are plants with stunted growth and/or twisted leaves, and ‘5’ are dead plants or no growth observed. […] (FIG. 4A) or 28° C./20° C. (FIG. 4B) relative to the F1 hybrid control plants (maize events NK603 × MON89034) (injury rating of 5). When the day/night temperatures were 38° C./30° C. […] The engineered proteins optimized for activity in higher temperatures provided AOPP herbicide tolerance when plants expressing these engineered proteins were exposed to high temperatures.

[3] = test system: F1 hybrid maize plants; test: 2,4-D tolerance at elevated growth temperatures; type: in vivo; settings: 4× 2,4-D amine, ten days after treatment
Experimental: To test for 2,4-D tolerance at elevated growth temperatures, F1 hybrid plants were produced by crossing an R1 plant containing MON-HTI, MON-HT2, MON-HT3, MON-HT4, MON-HT7, or MON-HT55 with an inbred plant containing maize event MON89034. The F1 hybrid plants were grown in a greenhouse for one week at a minimum temperature of 20° C. and a maximum temperature of 28° C. with 50 to 80% humidity. After 1 week, the plants were moved to acclimate for three days at one of two different day and night temperature regimens: (1) both day and night temperatures set at 20° C. or (2) day temperature at 38° C. and night temperature at 30° C. At the end of the acclimation period, the plants were generally at V4 growth stage and were sprayed with 4× 2,4-D amine. Ten days after treatment the plants were scored for injury using an injury scale of 0 to 100 with “0” being no injury and “100” being a dead plant. When plants were acclimated at day/night temperatures of 20° C./20° C. prior to application of 4× 2,4-D amine, F1 plants containing MON-HT1, MON-HT2, MON-HT3, MON-HT4, MON-HT7, or MON-HT55 had injury rating averages of <10%, and the control plants had injury rating averages of <20% (FIG. 4D). When plants were acclimated at day/night temperatures of 38° C./30° C. prior to application of 4× 2,4-D amine, F1 plants containing MON-HT4 or MON-HT7 had injury rating averages of <20%, F1 plants containing MON-HT1, MON-HT2 or MON-HT3 had injury rating averages of <10% (FIG. 4E), and the control plants and plants containing MON-HT55 F1 plants had injury rating averages of 50% (FIG. 4E).

[4] = test system: F1 hybrid maize plants; test: efficacy field trial for 2,4-D tolerance; type: in vivo; settings: operably linked to a CTP; 2×-16×
Experimental: (§1) Separate trait efficacy field trials for quizalofop-P and 2,4-D were conducted at two locations cach with F1 hybrid transgenic plants produced by crossing an inbred plant containing maize event MON89034 with an R1 plant containing MON-HT55 (with a CTP), MON-HTI (with or without a CTP), MON-HT2 (with or without a CTP), MON-HT3 (with a CTP), MON-HT4 (with a CTP), MON-HT5 (with a CTP), MON-HT6 (with a CTP), or MON-HT7 (with a CTP). Transgenic F1 hybrid plants containing maize events NK603×MON89034 were used for comparison as a control.
In the efficacy field trial for 2,4-D tolerance, one of four herbicide treatments was used: (1) 2,4-D amine at 2 lb ac/acre (2×) plus 0.25% v/v non-ionic surfactant (NIS) applied to VE to V2 followed by V4 followed by V8; (2) 2,4-D amine at 4 lb ac/acre (4×) plus 0.25% v/v NIS applied to VE to V2 followed by V4 followed by V8; (3) 2,4-D amine at 8 lb ac/acre (8×) plus 0.25% v/v NIS applied to VE to V2 followed by V4 followed by V8 maize; or (4) 2,4-D amine at 16 lb ac/acre (16×) plus 0.25% v/v NIS applied to VE to V2 followed by V4 followed by V8. Plots were visually rated as above. Tables 14 and 15 show the average injury ratings after herbicide application at V4 or V8 growth stage, respectively.

[5] = test system: F1 hybrid maize plants; test: efficacy field trial for quizalofop-P tolerance and clethodim sensitivity; type: in vivo; settings: operably linked to a CTP; 4×, 8×, 16×
Experimental: as §1
In the efficacy field trial for quizalofop-P tolerance and clethodim sensitivity, one of four herbicide treatments was used: (1) quizalofop-P (Assure II) at 0.32 lb ai/acre (4×) plus 0.25% v/v non-ionic surfactant (NIS) applied at VE-V2 growth stage followed by the same at V4 growth stage followed by the same at V8 growth stage; (2) quizalofop-P at 0.64 lb ai/acre (8×) plus 0.25% v/v NIS applied at VE to V2 growth stage followed by the same at V4 growth stage followed by the same at V8 growth stage; (3) quizalofop-P at 1.28 lb ai/acre (16×) plus 0.25% v/v NIS applied at VE to V2 growth stage followed by the same at V4 growth stage followed by the same at V8growth stage; or (4) clethodim at 0.25 lb ai/acre (1×) plus 0.25% v/v NIS applied at V8 growth stage. Plots were visually rated 10-14 days after application for crop injury on a scale of 0 to 100with “0” being none and “100” being complete crop destruction. Tables 14 and 15 show the average injury ratings after herbicide application at V4 or V8 growth stage, respectively.

B1: MON-HT15: engineered oxygenase protein, amino acid sequence SEQ ID NO:49 (protein)
chain: MHAALTPLTNKYRHIDVQPLTGVLGAEITGVDLREPLDDSTWNEILDAFHTYQVIYFPGQAITNEQHIAFSRRFGPVDPVPILKSIEGYPEVQMIRREANESSRYIGDDWHADSTFLDAPPAAVVMRAIEVPEYGGDTGFLSMYSAWETLSPAMQATIEGLNVVHSATKVFGSLYQATNWRFSNTSVKVMDVDAGDRETVHPLVVTHPVTGRRALYCNQIYCQKIQGMTDAESKSLLQFLYEHATQFDFTCRVRWKKDQVLVWDNLCTMHRAVPDYAGKFRYLTRTTVAGDKPSR
Melting temp, Buffer [1]: 55-58 °C
Melting temp, Buffer plus Fe2+ and aKG [1]: 60-62 °C

B2: MON-HT17: engineered oxygenase protein, amino acid sequence SEQ ID NO:51 (protein)
chain: B1 chain with H14F, A153T, I220V
Melting temp, Buffer [1]: 55-58 °C
Melting temp, Buffer plus Fe2+ and aKG [1]: 60-62 °C

B3: MON-HT1: engineered oxygenase protein, amino acid sequence SEQ ID NO:14 (protein)
chain: B1 chain with H14F, Y105F, A112T, A153T, I220V, Q246K
injury rating [2]: ≤ 1
injury rating averages ([3]; day/night 20° C./20° C.): < 10%
injury rating averages ([3]; day/night 38° C./30° C.): < 10%
injury ratings across all 2,4-D application rates at V4 growth stage [4]: less than 10%
injury ratings across all 2,4-D application rates at V8 growth stage [4]: less than 17%

B4: MON-HT2: engineered oxygenase protein, amino acid sequence SEQ ID NO:18 (protein)
chain: B1 chain with H14F, I82L, Y105V, A112S, A153T, I220V, Q246K, V273A
injury rating [2]: ≤ 1
injury rating averages ([3]; day/night 20° C./20° C.): < 10%
injury rating averages ([3]; day/night 38° C./30° C.): < 10%
injury ratings across all 2,4-D application rates at V4 growth stage [4]: less than 10%
injury ratings across all 2,4-D application rates at V8 growth stage [4]: less than 17%

B5: MON-HT55: engineered oxygenase protein, amino acid sequence SEQ ID NO:11 (protein)
chain: MHAALSPLSQRFERIAVQPLTGVLGAEITGVDLREPLDDSTWNEILDAFHTYQVIYFPGQAITNEQHIAFSRRFGPVDPVPLLKSIEGYPEVQMIRREANESGRVIGENWHTDSTFLDAPPAAVVMYAKEIPPYGGDTLFTSMYTAWETLSPTMQATIEGLNVVHSATRVFGSLYQAQNRRFSNTSVKVMDVDAGDRETVHPLVVTHPETGRKGLYVNQVYCQRIEGMSEKESEPLLSFLFAHATKPEFTCRVRWQEGDVLVWDNLCTQHYAVPDYAGKFRYLTRTTVGGVRPAR
injury rating averages ([3]; day/night 20° C./20° C.): < 10%

B6: MON-HT5: engineered oxygenase protein, amino acid sequence SEQ ID NO:28 (protein)
chain: B1 chain with H14F, I82L, S103G, Y105V, A112T, A153T, I220V, Q246K
injury ratings across all quizalofop-P application rates, V4 and V8 [5]: less than 15%
injury ratings across all 2,4-D application rates at V4 growth stage [4]: less than 20%
injury ratings across all 2,4-D application rates at V8 growth stage [4]: less than 22%

B7: MON-HT6: engineered oxygenase protein, amino acid sequence SEQ ID NO:31 (protein)
chain: MHAALSPLSQKYRFIDVQPLTGVLGAEITGVTLREPLDDNTWNEILDAFHTYQVIYFPGQAITNEQHIAFSRRFGPVDPVPLLKSIEGYPEVQMIRREANESGRVIGDDWHTDSTFLDAPPAAVVMYAREVPPYGGDTGFLSMYSAWDTLSDTMKATIEGLNVVHSATRVFGSLYQAQNRRFSNTSVKVMDVDAGDRETVHPLVVSHPVTGRRALYCNQVYCQRIEGMTDAESKPLLQFLYEHATRFDFTCRVRWKKDQVLVWDNLCTMHRAVPDYAGKFRYLTRTTVAGDKPSR
injury ratings across all quizalofop-P application rates, V4 and V8 [5]: less than 15%
injury ratings across all 2,4-D application rates at V4 growth stage [4]: less than 10%
injury ratings across all 2,4-D application rates at V8 growth stage [4]: less than 17%
